Test results as given in the supplement of paper PMC6078165.
The reference is the same well before dosing, and untreated signal decays as well.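 Fibroblast labels denote human fibroblasts, mainly primary ones from uterus (C12385, HUF), lung (H6013), bone (Hs27A), adrenal (HADF) and skin (WS1), plus mammary HMF and breast cancer-associated Hs343T. Cancer cells are basal-like or mesenchymal-like triple-negative breast cancer lines. A hit is a response shift exceeding 3x replicate standard deviation. The tissue of the other fibroblasts is not given here.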

System: Hs578T
Assay: relative JC-1 red fluorescence (viability) vs pre-drug, coculture with fibroblast (fraction); higher = more viable cancer cells
Experimental: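 JC-1 labelled TNBC cells cocultured 1:1 (1,500 cells each) with CellTrace Violet stained primary or stromal fibroblasts in 384-well plates in FluoroBrite medium, treated with one of 42 anticancer drugs at 0.1, 1, 10 or 100 uM. JC-1 red fluorescence (mitochondrial integrity in cancer cells only) was read by plate reader every 8 h for 72 h. Values are normalised to each well's pre-drug value. The stock of one drug was tenfold lower, so its dose labels may be too high.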

CC(=O)c1c(C)c2cnc(Nc3ccc(N4CCNCC4)cn3)nc2n(C2CCCC2)c1=O [Palbociclib]
relative JC-1 red fluorescence
Settings	8 h	16 h	24 h	32 h	40 h	48 h	56 h	64 h	72 h
0.1 µM	0.903	0.794	0.756	0.729	0.674	0.63	0.606	0.563	0.555
1 µM	0.8881	0.779	0.784	0.773	0.734	0.697	0.689	0.658	0.647

relative JC-1 red fluorescence
Settings	8 h	16 h	24 h	32 h	40 h	48 h	56 h	64 h	72 h
0.1 µM, coculture fibroblast: C12385	0.8463	0.716	0.699	0.612	0.564	0.5434	0.527	0.524	0.53
0.1 µM, coculture fibroblast: H6013	0.883	0.78	0.735	0.711	0.686	0.678	0.668	0.666	0.644
0.1 µM, coculture fibroblast: H6019	0.79191	0.6769	0.656	0.577	0.556	0.544	0.518	0.507	0.484
0.1 µM, coculture fibroblast: H6076	0.9339	0.835	0.812	0.8	0.771	0.774	0.756	0.761	0.758
0.1 µM, coculture fibroblast: H6231	0.922	0.829	0.738	0.6856	0.617	0.587	0.536	0.508	0.484
0.1 µM, coculture fibroblast: HADF	0.909	0.843	0.799	0.769	0.737	0.711	0.684	0.678	0.656
0.1 µM, coculture fibroblast: HCFa	0.8772	0.787	0.735	0.688	0.627	0.606	0.571	0.552	0.51
0.1 µM, coculture fibroblast: HCPF	0.943	0.858	0.825	0.788	0.743	0.721	0.684	0.639	0.607
0.1 µM, coculture fibroblast: HHSteC	0.915	0.801	0.74	0.689	0.635	0.606	0.577	0.55	0.514
0.1 µM, coculture fibroblast: HMF	0.907	0.815	0.78	0.767	0.716	0.706	0.67	0.65	0.636
0.1 µM, coculture fibroblast: HPFa	0.92	0.83	0.7587	0.707	0.656	0.622	0.581	0.551	0.511
0.1 µM, coculture fibroblast: HUF	0.876	0.758	0.695	0.592	0.518	0.48	0.445	0.43	0.419
0.1 µM, coculture fibroblast: Hs27A	0.923	0.885	0.859	0.8169	0.765	0.7568	0.72	0.705	0.655
0.1 µM, coculture fibroblast: Hs343T	0.916	0.775	0.774	0.767	0.709	0.693	0.671	0.659	0.664
0.1 µM, coculture fibroblast: WS1	0.8318	0.697	0.6429	0.556	0.498	0.477	0.456	0.456	0.456
1 µM, coculture fibroblast: C12385	0.861	0.75	0.764	0.698	0.654	0.642	0.627	0.627	0.629
1 µM, coculture fibroblast: H6013	0.8726	0.839	0.8144	0.803	0.778	0.785	0.776	0.775	0.757
1 µM, coculture fibroblast: H6019	0.802	0.73	0.737	0.646	0.616	0.594	0.563	0.539	0.517
1 µM, coculture fibroblast: H6076	0.925	0.831	0.8157	0.8086	0.77	0.784	0.781	0.768	0.777
1 µM, coculture fibroblast: H6231	0.904	0.837	0.8	0.778	0.727	0.712	0.678	0.65	0.635
1 µM, coculture fibroblast: HADF	0.9198	0.868	0.813	0.793	0.772	0.754	0.721	0.717	0.691
1 µM, coculture fibroblast: HCFa	0.877	0.853	0.835	0.82	0.779	0.783	0.758	0.748	0.709
1 µM, coculture fibroblast: HCPF	0.938	0.872	0.871	0.848	0.806	0.801	0.793	0.7601	0.7296
1 µM, coculture fibroblast: HHSteC	0.957	0.9105	0.882	0.866	0.824	0.811	0.797	0.786	0.756
1 µM, coculture fibroblast: HMF	0.9032	0.8117	0.7738	0.75909	0.7088	0.69	0.664	0.639	0.6299
1 µM, coculture fibroblast: HPFa	0.961	0.8789	0.814	0.77	0.735	0.699	0.649	0.625	0.581
1 µM, coculture fibroblast: HUF	0.898	0.8042	0.8086	0.717	0.673	0.643	0.614	0.607	0.602
1 µM, coculture fibroblast: Hs27A	0.9294	0.882	0.8729	0.8531	0.8127	0.8048	0.7615	0.767	0.715
1 µM, coculture fibroblast: Hs343T	0.956	0.847	0.826	0.79968	0.7442	0.717	0.689	0.66	0.649
1 µM, coculture fibroblast: WS1	0.81	0.716	0.664	0.591	0.544	0.525	0.502	0.5	0.503
